Assay results reported in patent US9730935B2, “Targeting a non-canonical notch signaling pathway for cancer treatment” (The Board of Trustees of the Leland Stanford Junior …, priority 2013, dated 2017).
Results are given in words; binding and its absence hold for the method and conditions named. In cells and extracts the contact can be indirect. Some entries that bind do so weakly or less than the wild type. One block for each substance: values may come before it.

Chains of the proteins cited; added tags and fusions are not shown. Residues count along the entry.
UniProt Q9BXM7, residues 78-581: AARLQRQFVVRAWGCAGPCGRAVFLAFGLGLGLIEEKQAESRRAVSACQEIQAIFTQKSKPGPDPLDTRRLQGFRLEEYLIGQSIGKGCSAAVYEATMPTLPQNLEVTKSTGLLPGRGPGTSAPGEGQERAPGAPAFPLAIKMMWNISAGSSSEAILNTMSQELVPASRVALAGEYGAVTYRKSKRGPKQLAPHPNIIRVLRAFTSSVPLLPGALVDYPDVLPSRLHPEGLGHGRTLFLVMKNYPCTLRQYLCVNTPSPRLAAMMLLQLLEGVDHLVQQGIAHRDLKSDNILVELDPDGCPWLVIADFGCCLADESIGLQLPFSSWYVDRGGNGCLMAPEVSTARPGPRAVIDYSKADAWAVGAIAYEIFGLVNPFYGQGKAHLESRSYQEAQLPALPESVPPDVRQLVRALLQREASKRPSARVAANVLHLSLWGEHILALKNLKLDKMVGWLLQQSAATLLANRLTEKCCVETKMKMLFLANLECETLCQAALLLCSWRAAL
UniProt P07207, residues 53-2703: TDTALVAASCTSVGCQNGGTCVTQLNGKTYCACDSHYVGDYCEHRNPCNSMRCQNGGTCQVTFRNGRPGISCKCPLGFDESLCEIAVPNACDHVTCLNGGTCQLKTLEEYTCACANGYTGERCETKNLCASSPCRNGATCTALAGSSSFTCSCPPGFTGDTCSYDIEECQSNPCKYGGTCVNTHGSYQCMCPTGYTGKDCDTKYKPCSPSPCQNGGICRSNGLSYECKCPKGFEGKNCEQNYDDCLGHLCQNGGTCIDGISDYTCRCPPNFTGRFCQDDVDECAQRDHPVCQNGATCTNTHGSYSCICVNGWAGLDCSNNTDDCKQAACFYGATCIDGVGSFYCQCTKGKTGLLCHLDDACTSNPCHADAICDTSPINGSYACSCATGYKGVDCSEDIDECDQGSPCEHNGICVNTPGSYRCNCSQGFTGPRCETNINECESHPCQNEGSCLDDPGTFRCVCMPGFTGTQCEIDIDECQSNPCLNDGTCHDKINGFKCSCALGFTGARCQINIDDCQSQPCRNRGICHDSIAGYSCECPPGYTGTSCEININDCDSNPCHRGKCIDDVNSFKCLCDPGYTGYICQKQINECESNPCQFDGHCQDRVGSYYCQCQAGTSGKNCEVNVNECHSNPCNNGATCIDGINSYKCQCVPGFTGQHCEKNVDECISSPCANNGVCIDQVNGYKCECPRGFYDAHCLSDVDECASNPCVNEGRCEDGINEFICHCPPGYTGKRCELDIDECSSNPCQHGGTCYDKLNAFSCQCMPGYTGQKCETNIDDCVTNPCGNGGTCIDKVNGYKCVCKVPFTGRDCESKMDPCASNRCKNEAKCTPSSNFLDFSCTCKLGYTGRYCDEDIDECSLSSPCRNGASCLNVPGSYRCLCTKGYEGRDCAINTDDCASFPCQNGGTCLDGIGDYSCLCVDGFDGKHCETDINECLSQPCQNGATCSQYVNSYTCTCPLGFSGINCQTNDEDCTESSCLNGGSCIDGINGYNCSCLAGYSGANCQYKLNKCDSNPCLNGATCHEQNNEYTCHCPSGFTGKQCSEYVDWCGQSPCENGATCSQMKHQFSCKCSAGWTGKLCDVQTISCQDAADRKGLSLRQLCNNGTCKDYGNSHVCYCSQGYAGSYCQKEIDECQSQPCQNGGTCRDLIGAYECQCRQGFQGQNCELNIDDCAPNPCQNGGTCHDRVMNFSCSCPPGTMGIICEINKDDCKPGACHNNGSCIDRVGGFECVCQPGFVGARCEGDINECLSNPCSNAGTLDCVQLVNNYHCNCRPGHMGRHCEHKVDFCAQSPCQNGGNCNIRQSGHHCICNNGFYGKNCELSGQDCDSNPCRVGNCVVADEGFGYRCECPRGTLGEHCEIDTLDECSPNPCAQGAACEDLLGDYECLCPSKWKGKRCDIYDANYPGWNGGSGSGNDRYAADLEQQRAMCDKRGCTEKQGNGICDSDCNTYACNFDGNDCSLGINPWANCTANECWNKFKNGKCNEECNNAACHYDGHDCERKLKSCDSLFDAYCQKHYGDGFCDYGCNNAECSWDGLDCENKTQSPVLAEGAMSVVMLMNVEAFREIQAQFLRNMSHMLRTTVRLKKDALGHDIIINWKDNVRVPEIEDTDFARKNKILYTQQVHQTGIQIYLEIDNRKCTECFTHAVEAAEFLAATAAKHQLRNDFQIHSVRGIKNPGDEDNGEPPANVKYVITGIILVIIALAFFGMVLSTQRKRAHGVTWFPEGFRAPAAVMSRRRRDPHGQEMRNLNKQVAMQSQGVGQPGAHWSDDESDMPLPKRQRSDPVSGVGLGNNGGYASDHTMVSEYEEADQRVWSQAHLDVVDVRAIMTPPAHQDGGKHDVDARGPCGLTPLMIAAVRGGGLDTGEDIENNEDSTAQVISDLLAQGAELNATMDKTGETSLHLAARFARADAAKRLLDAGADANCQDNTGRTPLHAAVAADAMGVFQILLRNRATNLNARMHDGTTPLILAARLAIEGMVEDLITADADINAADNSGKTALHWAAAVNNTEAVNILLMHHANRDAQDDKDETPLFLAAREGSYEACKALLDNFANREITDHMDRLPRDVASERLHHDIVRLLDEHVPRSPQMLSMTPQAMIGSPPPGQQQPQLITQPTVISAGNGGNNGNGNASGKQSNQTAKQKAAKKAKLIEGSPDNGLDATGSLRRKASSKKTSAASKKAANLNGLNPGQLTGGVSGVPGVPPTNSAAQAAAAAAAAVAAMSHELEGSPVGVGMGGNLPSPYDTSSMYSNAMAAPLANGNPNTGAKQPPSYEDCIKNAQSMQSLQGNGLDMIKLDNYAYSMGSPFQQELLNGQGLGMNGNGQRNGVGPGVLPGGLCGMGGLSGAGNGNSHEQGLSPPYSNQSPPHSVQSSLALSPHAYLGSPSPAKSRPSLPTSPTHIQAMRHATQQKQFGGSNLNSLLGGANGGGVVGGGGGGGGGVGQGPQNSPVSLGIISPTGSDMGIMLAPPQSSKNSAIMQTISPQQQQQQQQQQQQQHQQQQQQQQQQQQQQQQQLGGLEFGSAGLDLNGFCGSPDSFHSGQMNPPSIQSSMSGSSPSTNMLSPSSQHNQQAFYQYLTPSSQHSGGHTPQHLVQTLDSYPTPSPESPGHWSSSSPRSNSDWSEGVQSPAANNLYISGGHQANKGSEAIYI
UniProt P46531, residues 19-2555: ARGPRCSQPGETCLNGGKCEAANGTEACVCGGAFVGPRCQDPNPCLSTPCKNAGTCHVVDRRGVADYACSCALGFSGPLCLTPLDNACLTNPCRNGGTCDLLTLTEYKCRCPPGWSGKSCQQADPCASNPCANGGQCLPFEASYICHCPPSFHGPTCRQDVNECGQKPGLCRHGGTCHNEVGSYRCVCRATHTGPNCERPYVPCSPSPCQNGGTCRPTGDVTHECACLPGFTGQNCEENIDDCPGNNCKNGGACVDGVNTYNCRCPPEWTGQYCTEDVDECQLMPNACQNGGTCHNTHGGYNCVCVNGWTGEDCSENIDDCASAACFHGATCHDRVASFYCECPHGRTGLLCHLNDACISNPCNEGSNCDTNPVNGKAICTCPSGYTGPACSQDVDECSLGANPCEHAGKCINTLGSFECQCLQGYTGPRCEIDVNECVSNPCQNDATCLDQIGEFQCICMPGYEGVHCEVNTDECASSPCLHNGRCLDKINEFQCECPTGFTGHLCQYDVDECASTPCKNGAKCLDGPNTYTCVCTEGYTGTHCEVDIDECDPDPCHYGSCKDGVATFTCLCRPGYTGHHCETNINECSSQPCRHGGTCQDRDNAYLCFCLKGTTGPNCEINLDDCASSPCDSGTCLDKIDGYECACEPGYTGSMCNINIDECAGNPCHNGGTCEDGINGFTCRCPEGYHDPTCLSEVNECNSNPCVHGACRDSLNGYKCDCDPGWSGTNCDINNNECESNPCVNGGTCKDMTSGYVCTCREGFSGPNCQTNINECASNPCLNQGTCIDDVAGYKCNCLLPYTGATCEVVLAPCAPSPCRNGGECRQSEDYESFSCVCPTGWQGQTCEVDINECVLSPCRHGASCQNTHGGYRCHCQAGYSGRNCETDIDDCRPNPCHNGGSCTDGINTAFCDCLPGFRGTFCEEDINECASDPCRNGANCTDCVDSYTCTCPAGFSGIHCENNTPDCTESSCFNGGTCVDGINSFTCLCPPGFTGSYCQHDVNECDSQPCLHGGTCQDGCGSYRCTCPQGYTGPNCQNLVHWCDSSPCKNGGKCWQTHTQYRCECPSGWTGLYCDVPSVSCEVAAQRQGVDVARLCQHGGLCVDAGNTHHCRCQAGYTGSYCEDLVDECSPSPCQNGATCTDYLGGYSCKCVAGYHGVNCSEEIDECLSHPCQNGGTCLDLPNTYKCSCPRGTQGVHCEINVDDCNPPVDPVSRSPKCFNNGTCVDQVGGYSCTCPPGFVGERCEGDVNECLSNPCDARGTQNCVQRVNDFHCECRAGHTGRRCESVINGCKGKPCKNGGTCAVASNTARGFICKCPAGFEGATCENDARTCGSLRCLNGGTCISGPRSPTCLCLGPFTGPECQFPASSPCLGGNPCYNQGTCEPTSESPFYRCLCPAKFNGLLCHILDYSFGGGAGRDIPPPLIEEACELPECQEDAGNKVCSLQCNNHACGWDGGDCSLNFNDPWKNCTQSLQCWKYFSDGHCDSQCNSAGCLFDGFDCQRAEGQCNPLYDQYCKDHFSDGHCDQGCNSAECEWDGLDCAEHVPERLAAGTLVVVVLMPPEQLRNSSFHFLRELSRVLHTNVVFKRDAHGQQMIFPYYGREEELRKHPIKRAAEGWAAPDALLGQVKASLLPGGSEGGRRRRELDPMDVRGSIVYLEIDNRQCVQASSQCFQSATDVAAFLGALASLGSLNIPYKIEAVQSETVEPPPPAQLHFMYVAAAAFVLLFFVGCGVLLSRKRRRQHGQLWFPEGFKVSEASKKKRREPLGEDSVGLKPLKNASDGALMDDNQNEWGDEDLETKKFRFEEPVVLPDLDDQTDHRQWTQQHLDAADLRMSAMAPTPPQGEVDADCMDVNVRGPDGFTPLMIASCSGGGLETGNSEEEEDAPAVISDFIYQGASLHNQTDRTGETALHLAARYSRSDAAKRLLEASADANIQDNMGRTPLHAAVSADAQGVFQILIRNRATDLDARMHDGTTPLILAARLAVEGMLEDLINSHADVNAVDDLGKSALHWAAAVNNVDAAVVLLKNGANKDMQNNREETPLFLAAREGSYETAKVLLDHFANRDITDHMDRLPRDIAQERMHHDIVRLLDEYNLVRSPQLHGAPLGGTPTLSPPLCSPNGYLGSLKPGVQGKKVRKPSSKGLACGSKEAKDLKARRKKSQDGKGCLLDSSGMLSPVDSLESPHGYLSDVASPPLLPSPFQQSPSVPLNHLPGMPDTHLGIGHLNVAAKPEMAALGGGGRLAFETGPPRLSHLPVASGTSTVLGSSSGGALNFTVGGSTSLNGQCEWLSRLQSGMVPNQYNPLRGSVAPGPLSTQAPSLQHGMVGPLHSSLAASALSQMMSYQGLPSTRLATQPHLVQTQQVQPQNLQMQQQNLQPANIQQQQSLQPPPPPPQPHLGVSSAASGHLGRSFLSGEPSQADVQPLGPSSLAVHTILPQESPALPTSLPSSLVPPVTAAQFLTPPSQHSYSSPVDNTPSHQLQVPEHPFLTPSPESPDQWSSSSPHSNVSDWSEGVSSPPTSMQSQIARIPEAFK

Key:
[1] = molecular target: T1, Drosophila PTEN-induced kinase 1 (dPINK1) (Drosophila) (UniProt Q0KHV6); assay: co-immunoprecipitation with anti-GFP beads, western blot (FIG. 3J)
T1 sequence (looked up): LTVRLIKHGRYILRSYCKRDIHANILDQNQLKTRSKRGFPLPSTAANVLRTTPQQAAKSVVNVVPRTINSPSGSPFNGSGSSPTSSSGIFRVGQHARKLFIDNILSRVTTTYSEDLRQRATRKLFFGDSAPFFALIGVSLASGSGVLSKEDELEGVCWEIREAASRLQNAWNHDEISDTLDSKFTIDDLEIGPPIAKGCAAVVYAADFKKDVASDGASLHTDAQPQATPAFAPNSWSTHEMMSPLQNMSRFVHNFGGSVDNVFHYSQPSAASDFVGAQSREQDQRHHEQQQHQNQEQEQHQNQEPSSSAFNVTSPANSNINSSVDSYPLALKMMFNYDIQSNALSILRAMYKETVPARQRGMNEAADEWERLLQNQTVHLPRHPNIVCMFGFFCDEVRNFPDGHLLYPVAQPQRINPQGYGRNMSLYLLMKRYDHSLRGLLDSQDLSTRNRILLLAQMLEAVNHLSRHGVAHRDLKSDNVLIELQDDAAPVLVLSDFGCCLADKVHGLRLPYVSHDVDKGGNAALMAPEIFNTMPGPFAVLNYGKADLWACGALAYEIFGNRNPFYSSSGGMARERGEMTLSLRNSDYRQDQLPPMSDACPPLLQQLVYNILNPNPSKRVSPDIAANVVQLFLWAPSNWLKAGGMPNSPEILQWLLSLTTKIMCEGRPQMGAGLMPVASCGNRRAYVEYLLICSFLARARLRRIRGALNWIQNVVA

[2] = molecular target: T1, Drosophila PTEN-induced kinase 1 (dPINK1) (Drosophila); assay: co-immunoprecipitation, western blot (FIG. 3J, NiGFP fly tissue)
[3] = molecular target: human PTEN-induced putative kinase 1 (PINK1) (human) (UniProt Q9BXM7); assay: co-immunoprecipitation with anti-human PINK1 from mitochondrial extracts, western blot (FIG. 3K)
[4] = molecular target: human PTEN-induced putative kinase 1 (PINK1) (human) (UniProt Q9BXM7); assay: co-immunoprecipitation with anti-human PINK1 from mitochondrial extracts, western blot
[5] = molecular target: T1, Drosophila PTEN-induced kinase 1 (dPINK1) (Drosophila); assay: co-immunoprecipitation, western blot (FIG. 13C)
[6] = molecular target: T1, Drosophila PTEN-induced kinase 1 (dPINK1) (Drosophila); assay: co-immunoprecipitation, western blot (FIG. 13C, fly muscle extracts)

binding [1]: binds
binding [2]: binds
Substance: GFP-tagged Notch (NiGFP) expressed from the endogenous N locus, Drosophila (from UniProt P07207 53-2703) (receptor)

binding [3]: binds
binding [4]: binds
Substance: human Notch1 (hNotch1) (from UniProt P46531 19-2555) (receptor)

binding [5]: binds
binding [6]: binds
Substance: overexpressed N (Mhc-Gal4 driven) in fly muscle extracts, Drosophila (from UniProt P07207 53-2703) (receptor)
